Source: patent US20090093423A2, “NOVEL 2-SUBSTITUTED METHYL PENAM DERIVATIVES” (Orchid Chemicals and Pharmaceuticals Limited, priority 2006, published 2009)
At least one structure is not confirmed: it was looked up by name or label, or the drawing left a doubt.

Molecular target: Penicillinase enzyme
Assay: β-Lactamase assay (Centa substrate)
Assay type: biochemical
Conditions: FIG. 1
Description: Representative novel compounds were subjected to β-lactamase assay to determine and compare their IC50 with that of Tazo as described elsewhere (Bebrone et. al, 2001, Antimicrob. Agents. Chemother. 45(6): 1868-1871; Jamieson et. al, 2003, Antimicrob. Agents. Chemother. 47(5): 1652-1657). Briefly enzyme inhibition assays with Tazo acid as the standard inhibitor for % inhibitions & IC50 value with optimized concentrations of Penicillinase enzyme & Centa β-lactamase substrate were performed.

SMILES: CC(C)(C)OC(=O)C[n+]1ccn(C[C@@]2(C)[C@H](C(=O)O)N3C(=O)C[C@H]3S2(=O)=O)n1 [Example 6, 1-{[(2S,3S,5R)-2-Carboxy-3-methyl-4,4,7-trioxo-4-thia-1-azabicyclo[3.2.0]hept-3-yl]methyl}-3-(2-tert-butoxy-2-oxoethyl)-1H-1,2,3-triazol-3-ium]
- IC50 compared with Tazo: comparatively lower
